Patent US12195473B2, “KRAS mutant protein inhibitors” (JACOBIO PHARMACEUTICALS CO., LTD, priority 2019, dated 2025)
At least one structure is not confirmed: it was looked up by name or label, or the drawing left a doubt.

Tested on: HIS-KRAS (G12C)
Format: biochemical
Settings: GDP-loaded HIS-KRAS (G12C), 1 hour pre-incubation with compound, TR-FRET; read-out: SOS1 catalyzed nucleotide exchange IC50

C=CC(=O)N1[C@H](C)CN(c2c(C#N)c(=O)n(-c3c(C)ccnc3C(C)C)c3nc(-c4c(N)c(Cl)c(F)c(Cl)c4F)c(Cl)cc23)C[C@@H]1C [Compound 5, 4-((3S,5R)-4-acryloyl-3,5-dimethylpiperazin-1-yl)-7-(2-amino-3,5-dichloro-4,6-difluorophenyl)-6-chloro-1-(2-isopropyl-4-methylpyridin-3-yl)-2-oxo-1,2-dihydro-1,8-naphthyridine-3-carbonitrile]
IC50: 5.97 nM
